From publication PMC10009167 come the findings set out here.

These are yes or no findings as the source states them, for the method shown. In cells and extracts the contact can be indirect. Some results given as binding are weak or reduced against the parent protein; the word gives no strength.

The target of this experiment is T1, SYP41 (Syntaxin of Plants 41) (Arabidopsis thaliana (endogenous in leaves)) (UniProt O65359).
T1 sequence: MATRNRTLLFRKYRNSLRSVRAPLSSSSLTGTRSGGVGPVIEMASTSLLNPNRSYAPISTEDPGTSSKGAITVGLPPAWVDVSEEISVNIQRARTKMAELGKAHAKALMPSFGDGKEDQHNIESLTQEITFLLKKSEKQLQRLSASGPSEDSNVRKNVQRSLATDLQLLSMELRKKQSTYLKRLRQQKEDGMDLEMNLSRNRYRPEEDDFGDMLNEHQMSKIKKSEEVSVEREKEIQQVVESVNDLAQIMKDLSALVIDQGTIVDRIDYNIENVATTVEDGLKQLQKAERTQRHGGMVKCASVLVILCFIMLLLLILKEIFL
Put plainly: co-IP; SYP41 immunoprecipitated with anti-SYP41 antibodies (1:200) and protein A Sepharose from 0.5% Triton X-100-solubilized extracts of leaves of 4- to 6-week-old WT or vps45-3 Arabidopsis plants, 4°C; washed with PBS with 0.1% Triton X-100; eluates immunoblotted for VPS45, SYP41, SYP61. (In general: In western blotting, separated proteins are transferred to a membrane and probed.)

B1: Arabidopsis thaliana VPS45 (Vacuolar Protein Sorting 45), wild type (protein, UniProt O49048 1-569)
chain: MVLVTSVRDYINRMLQDISGMKVLILDSETVSNVSIVYSQSELLQKEVFLVEMIDSISVSKESMSHLKAVYFIRPTSDNIQKLRYQLANPRFGEYHLFFSNLLKDTQIHILADSDEQEVVQQVQEYYADFVSGDPYHFTLNMASNHLYMIPAVVDPSGLQRFSDRVVDGIAAVFLALKRRPVIRYQRTSDTAKRIAHETAKLMYQHESALFDFRRTESSPLLLVIDRRDDPVTPLLNQWTYQAMVHELIGLQDNKVDLKSIGSLPKDQQVEVVLSSEQDAFFKSNMYENFGDIGMNIKRMVDDFQQVAKSNQNIQTVEDMARFVDNYPEYKKMQGNVSKHVTLVTEMSKLVEARKLMTVSQTEQDLACNGGQGAAYEAVTDLLNNESVSDIDRLRLVMLYALRYEKENPVQLMQLFNKLASRSPKYKPGLVQFLLKQAGVEKRTGDLFGNRDLLNIARNMARGLKGVENVYTQHQPLLFQTMESITRGRLRDVDYPFVGDHFQQGRPQEVVIFMVGGTTYEESRSVALQNATNSGVRFILGGTAVLNSKRFLKDLEEAQRISRSGSHMV
For the molecule B1, the binding result is “binds”.

B2: VPS45-3 protein (VPS45 with serine 284-to-phenylalanine substitution) (protein, UniProt O49048 1-569)
chain: MVLVTSVRDYINRMLQDISGMKVLILDSETVSNVSIVYSQSELLQKEVFLVEMIDSISVSKESMSHLKAVYFIRPTSDNIQKLRYQLANPRFGEYHLFFSNLLKDTQIHILADSDEQEVVQQVQEYYADFVSGDPYHFTLNMASNHLYMIPAVVDPSGLQRFSDRVVDGIAAVFLALKRRPVIRYQRTSDTAKRIAHETAKLMYQHESALFDFRRTESSPLLLVIDRRDDPVTPLLNQWTYQAMVHELIGLQDNKVDLKSIGSLPKDQQVEVVLSSEQDAFFKFNMYENFGDIGMNIKRMVDDFQQVAKSNQNIQTVEDMARFVDNYPEYKKMQGNVSKHVTLVTEMSKLVEARKLMTVSQTEQDLACNGGQGAAYEAVTDLLNNESVSDIDRLRLVMLYALRYEKENPVQLMQLFNKLASRSPKYKPGLVQFLLKQAGVEKRTGDLFGNRDLLNIARNMARGLKGVENVYTQHQPLLFQTMESITRGRLRDVDYPFVGDHFQQGRPQEVVIFMVGGTTYEESRSVALQNATNSGVRFILGGTAVLNSKRFLKDLEEAQRISRSGSHMV
For the molecule B2, the binding entry was “binds”.

B3: SYP61 (Syntaxin of Plants 61) (protein, UniProt Q946Y7 1-245)
chain: MSSAQDPFYIVKEEIQDSIDKLQSTFHKWERISPDMGDQAHVAKELVATCGSIEWQVDELEKAITVAAKDPSWYGIDEAELEKRRRWTSNARTQVRNVKSGVLAGKVSSGAGHASEVRRELMRMPNSGEASRYDQYGGRDDDGFVQSESDRQMLLIKQQDEELDELSKSVQRIGGVGLTIHDELVAQERIIDELDTEMDSTKNRLEFVQKKVGMVMKKAGAKGQMMMICFLLVLFIILFVLVFLT
Regarding B3, the binding entry is “binds”.
